Experimental data: publication PMC6051995

Chains of the proteins cited; added tags and fusions are not shown.
UniProt Q15022: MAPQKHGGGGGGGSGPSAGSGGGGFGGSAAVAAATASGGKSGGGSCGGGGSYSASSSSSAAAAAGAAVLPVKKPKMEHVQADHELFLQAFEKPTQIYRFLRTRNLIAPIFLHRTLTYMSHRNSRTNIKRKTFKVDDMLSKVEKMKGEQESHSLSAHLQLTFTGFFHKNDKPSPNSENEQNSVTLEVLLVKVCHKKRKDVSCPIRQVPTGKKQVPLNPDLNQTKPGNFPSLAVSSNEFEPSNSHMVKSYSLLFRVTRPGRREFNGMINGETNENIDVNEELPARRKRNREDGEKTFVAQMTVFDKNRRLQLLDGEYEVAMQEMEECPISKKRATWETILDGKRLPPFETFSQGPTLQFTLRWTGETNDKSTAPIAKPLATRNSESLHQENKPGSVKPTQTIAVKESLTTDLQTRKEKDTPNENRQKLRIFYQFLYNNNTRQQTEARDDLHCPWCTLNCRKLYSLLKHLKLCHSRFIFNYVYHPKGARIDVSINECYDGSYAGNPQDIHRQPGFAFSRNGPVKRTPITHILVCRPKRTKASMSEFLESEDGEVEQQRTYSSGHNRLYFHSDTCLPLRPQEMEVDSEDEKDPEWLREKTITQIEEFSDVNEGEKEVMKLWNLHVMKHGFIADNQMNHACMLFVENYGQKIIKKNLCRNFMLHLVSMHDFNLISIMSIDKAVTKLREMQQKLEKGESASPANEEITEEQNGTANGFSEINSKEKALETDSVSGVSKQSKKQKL
UniProt O75530: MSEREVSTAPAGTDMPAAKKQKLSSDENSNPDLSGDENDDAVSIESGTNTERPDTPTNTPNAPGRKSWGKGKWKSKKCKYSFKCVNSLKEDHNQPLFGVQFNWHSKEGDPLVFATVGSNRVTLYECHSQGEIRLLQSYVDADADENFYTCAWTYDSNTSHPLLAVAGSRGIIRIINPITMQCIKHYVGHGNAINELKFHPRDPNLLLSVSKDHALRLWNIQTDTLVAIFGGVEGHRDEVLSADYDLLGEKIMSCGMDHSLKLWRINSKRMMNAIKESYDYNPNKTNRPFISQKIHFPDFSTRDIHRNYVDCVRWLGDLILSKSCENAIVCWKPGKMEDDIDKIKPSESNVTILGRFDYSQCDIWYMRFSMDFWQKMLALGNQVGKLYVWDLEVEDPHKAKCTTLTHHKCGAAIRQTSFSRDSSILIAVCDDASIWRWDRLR
UniProt Q15910: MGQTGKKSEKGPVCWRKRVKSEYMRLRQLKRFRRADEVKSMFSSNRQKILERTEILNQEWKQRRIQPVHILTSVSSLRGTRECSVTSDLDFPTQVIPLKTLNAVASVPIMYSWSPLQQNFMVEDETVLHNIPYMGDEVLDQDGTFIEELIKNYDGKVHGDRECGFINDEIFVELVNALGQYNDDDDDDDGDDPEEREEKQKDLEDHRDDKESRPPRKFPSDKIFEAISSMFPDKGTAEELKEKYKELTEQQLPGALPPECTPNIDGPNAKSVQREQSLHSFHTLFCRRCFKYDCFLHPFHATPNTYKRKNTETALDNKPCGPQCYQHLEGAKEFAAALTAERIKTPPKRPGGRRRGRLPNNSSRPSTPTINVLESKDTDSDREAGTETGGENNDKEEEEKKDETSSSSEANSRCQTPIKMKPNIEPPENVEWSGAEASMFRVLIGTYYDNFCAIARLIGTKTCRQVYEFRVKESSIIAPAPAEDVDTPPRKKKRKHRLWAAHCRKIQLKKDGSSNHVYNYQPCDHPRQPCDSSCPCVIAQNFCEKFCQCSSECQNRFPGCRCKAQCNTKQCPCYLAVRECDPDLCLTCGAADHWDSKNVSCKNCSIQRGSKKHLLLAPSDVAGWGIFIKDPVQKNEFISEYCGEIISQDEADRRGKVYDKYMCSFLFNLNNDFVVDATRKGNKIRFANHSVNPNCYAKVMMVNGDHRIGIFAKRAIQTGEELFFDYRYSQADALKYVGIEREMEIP

Experiments:
[1] = biological target: SUZ12 (human (endogenous in MDA-MB-231)) (UniProt Q15022); test: co-IP + proximity ligation; endogenous proteins in breast cancer cells (Supplementary Fig. 6E); the sentence names both methods and does not tell which showed the lack of interaction
[2] = biological target: EED (human (endogenous in MDA-MB-231)) (UniProt O75530); test: as above
[3] = biological target: pEZH2(T367) (endogenous EZH2 phosphorylated at T367) (human (endogenous in MDA-MB-231)) (UniProt Q15910); test: proximity ligation; fixed breast cancer cells (MDA-MB-231); DuoLink PLA probes; confocal imaging

- binding [1]: no binding
- binding [2]: no binding
- binding [3]: binds
Substance: vinculin (endogenous) (from UniProt P18206-2)

No constants are given. Whether binding was seen depends on the method and setting. Binding seen in cells or lysates may run through a third protein. For part of these data: Binding calls can cover weak binding; strength is not graded here.
